In patent US20250074896A1, “ARYLTETRAHYDROPYRIDAZINE DERIVATIVE OR SALT THEREOF AND INSECTICIDAL AGENT CONTAINING THE COMPOUND AND METHOD FOR USING SAME” (NIHON NOHYAKU CO., LTD., priority 2021, published 2025):
Some results were stated once for a whole list of compounds, not compound by compound.

How the values were obtained:
Format in all cases: in vivo
[1] = tested on: Diamondback moth (Plutella xylostella); test: Insecticidal test on diamondback moth (dip treatment of Chinese cabbage seedlings with laid eggs); details: dip about 30 seconds, 6 days after treatment, 25° C.
[2] = tested on: Western Flower Thrips (Frankliniella occidentalis); test: Insecticidal test on western flower thrips (kidney bean leaf pieces, hatched larvae); details: 4 days after the treatment
[3] = tested on: Small Brown Planthopper (Laodelphax striatellus); test: Insecticidal test on small brown planthopper (dipped rice seedlings, 3rd-instar larvae); details: rice seedlings dipped 30 seconds, 8 days after inoculation

Cc1ccc(NC(=O)C2=C(O)CN(c3cnc(C#N)c(Cl)c3)NC2=O)cn1 [1-184]
A (the mortality rate is 100%): insecticidal efficacy (corrected mortality rate) against diamondback moth ([1]; 50 ppm) | insecticidal efficacy (corrected mortality rate) against diamondback moth ([1]; 500 ppm) | insecticidal efficacy (corrected mortality rate) against western flower thrips ([2]; 50 ppm) | insecticidal efficacy (corrected mortality rate) against western flower thrips ([2]; 500 ppm) | insecticidal efficacy (corrected mortality rate) against small brown planthopper ([3]; 50 ppm) | insecticidal efficacy (corrected mortality rate) against small brown planthopper ([3]; 500 ppm)

COC(=O)N1C(=O)C(C(=S)Nc2cc(F)c(F)c(F)c2)=C(O)CN1c1ccc(C#N)nc1 [4-94]
A (the mortality rate is 100%): insecticidal efficacy (corrected mortality rate) against diamondback moth ([1]; 50 ppm) | insecticidal efficacy (corrected mortality rate) against diamondback moth ([1]; 500 ppm) | insecticidal efficacy (corrected mortality rate) against western flower thrips ([2]; 50 ppm) | insecticidal efficacy (corrected mortality rate) against western flower thrips ([2]; 500 ppm) | insecticidal efficacy (corrected mortality rate) against small brown planthopper ([3]; 50 ppm) | insecticidal efficacy (corrected mortality rate) against small brown planthopper ([3]; 500 ppm)

N#Cc1ncc(N2CC(O)=C(C(=O)Nc3ccc(F)c(F)c3)C(=O)N2)cc1F [1-77]
A (the mortality rate is 100%): insecticidal efficacy (corrected mortality rate) against diamondback moth ([1]; 500 ppm) | insecticidal efficacy (corrected mortality rate) against western flower thrips ([2]; 500 ppm) | insecticidal efficacy (corrected mortality rate) against small brown planthopper ([3]; 500 ppm)

COCCOC(=O)N1C(=O)C(C(=O)Nc2ccc(F)cc2)=C(O)CN1c1ccc(C(F)(F)F)nc1 [3-322]
A (the mortality rate is 100%): insecticidal efficacy (corrected mortality rate) against diamondback moth ([1]; 50 ppm) | insecticidal efficacy (corrected mortality rate) against diamondback moth ([1]; 500 ppm) | insecticidal efficacy (corrected mortality rate) against western flower thrips ([2]; 50 ppm) | insecticidal efficacy (corrected mortality rate) against western flower thrips ([2]; 500 ppm) | insecticidal efficacy (corrected mortality rate) against small brown planthopper ([3]; 50 ppm) | insecticidal efficacy (corrected mortality rate) against small brown planthopper ([3]; 500 ppm)

O=C(Nc1ccc(F)cc1)C1=C(O)CN(c2ccc(C(F)(F)F)nc2)N(C(=S)NC2CC2)C1=O [3-368]
A (the mortality rate is 100%): insecticidal efficacy (corrected mortality rate) against diamondback moth ([1]; 50 ppm) | insecticidal efficacy (corrected mortality rate) against diamondback moth ([1]; 500 ppm) | insecticidal efficacy (corrected mortality rate) against western flower thrips ([2]; 50 ppm) | insecticidal efficacy (corrected mortality rate) against western flower thrips ([2]; 500 ppm) | insecticidal efficacy (corrected mortality rate) against small brown planthopper ([3]; 50 ppm) | insecticidal efficacy (corrected mortality rate) against small brown planthopper ([3]; 500 ppm)

COC(=O)N1C(=O)C(C(=O)Nc2ccc(F)cc2)=C([O-])CN1c1ccc(C#N)nc1.[Na+] [3-675]
A (the mortality rate is 100%): insecticidal efficacy (corrected mortality rate) against diamondback moth ([1]; 500 ppm) | insecticidal efficacy (corrected mortality rate) against western flower thrips ([2]; 50 ppm) | insecticidal efficacy (corrected mortality rate) against western flower thrips ([2]; 500 ppm) | insecticidal efficacy (corrected mortality rate) against small brown planthopper ([3]; 50 ppm) | insecticidal efficacy (corrected mortality rate) against small brown planthopper ([3]; 500 ppm)

COc1cccc(NC(=O)C2=C(O)CN(c3ccc(C#N)nc3)NC2=O)n1 [1-290]
A (the mortality rate is 100%): insecticidal efficacy (corrected mortality rate) against diamondback moth ([1]; 500 ppm) | insecticidal efficacy (corrected mortality rate) against western flower thrips ([2]; 500 ppm) | insecticidal efficacy (corrected mortality rate) against small brown planthopper ([3]; 500 ppm)

N#Cc1ncc(N2CC(O)=C(C(=O)Nc3ccc(F)c(F)c3)C(=O)N2)cc1Cl [1-76]
A (the mortality rate is 100%): insecticidal efficacy (corrected mortality rate) against diamondback moth ([1]; 50 ppm) | insecticidal efficacy (corrected mortality rate) against diamondback moth ([1]; 500 ppm) | insecticidal efficacy (corrected mortality rate) against western flower thrips ([2]; 50 ppm) | insecticidal efficacy (corrected mortality rate) against western flower thrips ([2]; 500 ppm) | insecticidal efficacy (corrected mortality rate) against small brown planthopper ([3]; 50 ppm) | insecticidal efficacy (corrected mortality rate) against small brown planthopper ([3]; 500 ppm)

N#Cc1ccc(N2CC(O)=C(C(=O)Nc3c(F)cccc3F)C(=O)N2)cc1 [1-241]
A (the mortality rate is 100%): insecticidal efficacy (corrected mortality rate) against diamondback moth ([1]; 500 ppm) | insecticidal efficacy (corrected mortality rate) against western flower thrips ([2]; 500 ppm) | insecticidal efficacy (corrected mortality rate) against small brown planthopper ([3]; 500 ppm)

COC(=O)N1C(=O)C(C(=O)Nc2ccc(F)cc2)=C(O)CN1c1ccc(C#N)nc1 [3-194]
A (the mortality rate is 100%): insecticidal efficacy (corrected mortality rate) against diamondback moth ([1]; 500 ppm) | insecticidal efficacy (corrected mortality rate) against western flower thrips ([2]; 50 ppm) | insecticidal efficacy (corrected mortality rate) against western flower thrips ([2]; 500 ppm) | insecticidal efficacy (corrected mortality rate) against small brown planthopper ([3]; 50 ppm) | insecticidal efficacy (corrected mortality rate) against small brown planthopper ([3]; 500 ppm)

CCOC(=O)N1C(=O)C(C(=O)Nc2ccc(F)cc2)=C(O)CN1c1ccc(C#N)nc1 [3-263]
A (the mortality rate is 100%): insecticidal efficacy (corrected mortality rate) against diamondback moth ([1]; 50 ppm) | insecticidal efficacy (corrected mortality rate) against diamondback moth ([1]; 500 ppm) | insecticidal efficacy (corrected mortality rate) against western flower thrips ([2]; 50 ppm) | insecticidal efficacy (corrected mortality rate) against western flower thrips ([2]; 500 ppm) | insecticidal efficacy (corrected mortality rate) against small brown planthopper ([3]; 50 ppm) | insecticidal efficacy (corrected mortality rate) against small brown planthopper ([3]; 500 ppm)

COC(=O)N1C(=O)C(C(=O)Nc2ccc(C#N)cc2)=C(O)CN1c1cnc(C#N)c(C)c1 [3-496]
A (the mortality rate is 100%): insecticidal efficacy (corrected mortality rate) against diamondback moth ([1]; 500 ppm) | insecticidal efficacy (corrected mortality rate) against western flower thrips ([2]; 50 ppm) | insecticidal efficacy (corrected mortality rate) against western flower thrips ([2]; 500 ppm) | insecticidal efficacy (corrected mortality rate) against small brown planthopper ([3]; 50 ppm) | insecticidal efficacy (corrected mortality rate) against small brown planthopper ([3]; 500 ppm)

COc1ccc(NC(=S)C2=C(O)CN(c3ccc(C(F)(F)F)nc3)N(C(=O)OC(C)(C)C)C2=O)cc1 [4-37]
A (the mortality rate is 100%): insecticidal efficacy (corrected mortality rate) against diamondback moth ([1]; 500 ppm) | insecticidal efficacy (corrected mortality rate) against western flower thrips ([2]; 500 ppm) | insecticidal efficacy (corrected mortality rate) against small brown planthopper ([3]; 500 ppm)

Cc1cc(N2CC(O)=C(C(=O)Nc3ccc(F)c(F)c3F)C(=O)N2)cnc1C#N [1-321]
A (the mortality rate is 100%): insecticidal efficacy (corrected mortality rate) against diamondback moth ([1]; 50 ppm) | insecticidal efficacy (corrected mortality rate) against diamondback moth ([1]; 500 ppm) | insecticidal efficacy (corrected mortality rate) against western flower thrips ([2]; 50 ppm) | insecticidal efficacy (corrected mortality rate) against western flower thrips ([2]; 500 ppm) | insecticidal efficacy (corrected mortality rate) against small brown planthopper ([3]; 50 ppm) | insecticidal efficacy (corrected mortality rate) against small brown planthopper ([3]; 500 ppm)

Cc1ccc(NC(=O)C2=C(O)CN(c3ccc(Br)nc3)NC2=O)cc1 [1-390]
A (the mortality rate is 100%): insecticidal efficacy (corrected mortality rate) against diamondback moth ([1]; 50 ppm) | insecticidal efficacy (corrected mortality rate) against diamondback moth ([1]; 500 ppm) | insecticidal efficacy (corrected mortality rate) against western flower thrips ([2]; 500 ppm) | insecticidal efficacy (corrected mortality rate) against small brown planthopper ([3]; 50 ppm) | insecticidal efficacy (corrected mortality rate) against small brown planthopper ([3]; 500 ppm)

CC(C)(C)OC(=O)N1C(=O)C(C(=S)Nc2ccc(F)c(F)c2)=C(O)CN1c1ccc(C(F)(F)F)nc1 [4-29]
A (the mortality rate is 100%): insecticidal efficacy (corrected mortality rate) against diamondback moth ([1]; 500 ppm) | insecticidal efficacy (corrected mortality rate) against western flower thrips ([2]; 500 ppm) | insecticidal efficacy (corrected mortality rate) against small brown planthopper ([3]; 500 ppm)

COc1cccc(NC(=O)C2=C(O)CN(c3cnc(C#N)c(Cl)c3)NC2=O)n1 [1-219]
A (the mortality rate is 100%): insecticidal efficacy (corrected mortality rate) against diamondback moth ([1]; 50 ppm) | insecticidal efficacy (corrected mortality rate) against diamondback moth ([1]; 500 ppm) | insecticidal efficacy (corrected mortality rate) against western flower thrips ([2]; 50 ppm) | insecticidal efficacy (corrected mortality rate) against western flower thrips ([2]; 500 ppm) | insecticidal efficacy (corrected mortality rate) against small brown planthopper ([3]; 500 ppm)

N#Cc1ncc(N2CC(O)=C(C(=O)Nc3ccccc3F)C(=O)N2)cc1Cl [1-196]
A (the mortality rate is 100%): insecticidal efficacy (corrected mortality rate) against diamondback moth ([1]; 50 ppm) | insecticidal efficacy (corrected mortality rate) against diamondback moth ([1]; 500 ppm) | insecticidal efficacy (corrected mortality rate) against western flower thrips ([2]; 50 ppm) | insecticidal efficacy (corrected mortality rate) against western flower thrips ([2]; 500 ppm) | insecticidal efficacy (corrected mortality rate) against small brown planthopper ([3]; 500 ppm)

COc1cc(N2CC(O)=C(C(=O)Nc3ccc(F)c(C)c3)C(=O)N2)ccc1C#N [1-24]
A (the mortality rate is 100%): insecticidal efficacy (corrected mortality rate) against diamondback moth ([1]; 50 ppm) | insecticidal efficacy (corrected mortality rate) against diamondback moth ([1]; 500 ppm) | insecticidal efficacy (corrected mortality rate) against western flower thrips ([2]; 500 ppm) | insecticidal efficacy (corrected mortality rate) against small brown planthopper ([3]; 50 ppm) | insecticidal efficacy (corrected mortality rate) against small brown planthopper ([3]; 500 ppm)

COc1cc(N2CC(O)=C(C(=O)Nc3ccc(Cl)nc3)C(=O)N2)ccc1C#N [1-2]
A (the mortality rate is 100%): insecticidal efficacy (corrected mortality rate) against diamondback moth ([1]; 500 ppm) | insecticidal efficacy (corrected mortality rate) against western flower thrips ([2]; 500 ppm) | insecticidal efficacy (corrected mortality rate) against small brown planthopper ([3]; 50 ppm) | insecticidal efficacy (corrected mortality rate) against small brown planthopper ([3]; 500 ppm)
